Assay results published in doi:10.1101/2024.11.25.625148.

The chains behind the UniProt entries cited, without tags or fusion partners. Where a name states a change or a piece, a line headed by the entry shows the natural chain unless it says otherwise.
UniProt Q60932: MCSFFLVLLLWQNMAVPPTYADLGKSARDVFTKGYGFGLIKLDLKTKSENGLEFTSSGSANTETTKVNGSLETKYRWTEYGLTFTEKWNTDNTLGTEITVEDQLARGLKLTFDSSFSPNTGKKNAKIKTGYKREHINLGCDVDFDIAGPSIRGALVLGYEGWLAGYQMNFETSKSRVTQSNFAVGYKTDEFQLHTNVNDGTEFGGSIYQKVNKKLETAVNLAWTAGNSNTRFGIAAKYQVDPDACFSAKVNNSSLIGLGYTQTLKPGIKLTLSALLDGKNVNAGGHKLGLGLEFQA

Key:
Test in all cases: co-IP
[1] = molecular target: T1, adenine nucleotide translocase 2 (ANT2) (mouse (endogenous in HL-1 cells and mouse myocardium)) (UniProt P51881)
T1 sequence: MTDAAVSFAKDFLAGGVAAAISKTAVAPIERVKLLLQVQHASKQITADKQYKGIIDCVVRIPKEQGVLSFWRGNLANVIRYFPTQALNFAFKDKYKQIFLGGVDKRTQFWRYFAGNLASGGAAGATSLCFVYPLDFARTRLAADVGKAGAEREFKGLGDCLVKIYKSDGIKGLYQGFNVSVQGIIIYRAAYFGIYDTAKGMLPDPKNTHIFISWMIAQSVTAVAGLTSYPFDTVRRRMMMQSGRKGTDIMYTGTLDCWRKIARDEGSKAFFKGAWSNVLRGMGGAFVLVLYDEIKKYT

[2] = molecular target: T2, ANT2-K163R stably expressed in HL-1 cells (Lv-ANT2-K163R) (human) (UniProt P05141)
T2 sequence: T1 sequence with R111L, K155R, K163R, F211V, S219T, S267G

[3] = molecular target: T3, ANT2-K163R expressed in mouse myocardium by AAV9 (human) (UniProt P05141)
T3 sequence: T1 sequence with R111L, K155R, K163R, F211V, S219T, S267G

[4] = molecular target: T4, ANT2 stably expressed in HL-1 cells (Lv-ANT2) (human) (UniProt P05141)
T4 sequence: T1 sequence with R111L, K155R, F211V, S219T, S267G

[5] = molecular target: T1, adenine nucleotide translocase 2 (ANT2) (mouse (endogenous in HL-1 cells and mouse myocardium)); remark: listed apart in the source
[6] = molecular target: T5, ANT2 expressed in mouse myocardium by AAV9 (human) (UniProt P05141)
T5 sequence: T1 sequence with R111L, K155R, F211V, S219T, S267G

Measured: binding

voltage-dependent anion-selective channel 1 (VDAC1) (from UniProt Q60932)
binds: all assays above

Positions count from the first letter of the chain named. Read-outs that look alike come from different tables or passages of the source. No constants are given. Whether binding was seen depends on the method and setting. Binding seen in cells or lysates may run through a third protein. Binding calls can cover weak binding; strength is not graded here.
